Source: publication PMC8038998
Results are given in words; binding and its absence hold for the method and conditions named. In cells and extracts the contact can be indirect.

Sequences of proteins named here, by UniProt entry; tags and fusion partners are left off. A change or cut given only in a name is not applied to a line headed by its entry.
UniProt Q6ZN28: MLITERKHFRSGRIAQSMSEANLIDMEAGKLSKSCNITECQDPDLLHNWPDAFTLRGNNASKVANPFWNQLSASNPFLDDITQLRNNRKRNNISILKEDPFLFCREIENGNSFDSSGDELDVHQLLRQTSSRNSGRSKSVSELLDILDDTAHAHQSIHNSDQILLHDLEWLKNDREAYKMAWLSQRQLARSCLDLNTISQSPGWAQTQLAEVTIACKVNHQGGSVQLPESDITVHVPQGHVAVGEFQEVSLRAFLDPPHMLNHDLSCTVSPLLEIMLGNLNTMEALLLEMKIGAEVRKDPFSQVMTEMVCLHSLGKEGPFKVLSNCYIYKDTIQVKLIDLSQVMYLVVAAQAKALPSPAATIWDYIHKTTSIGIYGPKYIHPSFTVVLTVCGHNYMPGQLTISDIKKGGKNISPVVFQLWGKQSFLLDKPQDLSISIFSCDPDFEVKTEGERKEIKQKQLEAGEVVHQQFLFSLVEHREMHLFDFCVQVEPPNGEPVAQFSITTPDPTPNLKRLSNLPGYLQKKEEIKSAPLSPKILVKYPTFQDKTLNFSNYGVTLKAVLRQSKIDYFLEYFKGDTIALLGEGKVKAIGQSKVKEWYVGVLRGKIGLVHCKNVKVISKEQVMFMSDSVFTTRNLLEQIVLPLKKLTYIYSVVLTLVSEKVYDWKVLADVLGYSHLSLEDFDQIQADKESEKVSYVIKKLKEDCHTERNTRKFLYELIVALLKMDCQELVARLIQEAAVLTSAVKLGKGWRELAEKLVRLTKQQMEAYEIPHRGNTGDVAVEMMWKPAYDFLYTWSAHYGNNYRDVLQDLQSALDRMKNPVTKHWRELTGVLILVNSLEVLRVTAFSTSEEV
UniProt Q00610: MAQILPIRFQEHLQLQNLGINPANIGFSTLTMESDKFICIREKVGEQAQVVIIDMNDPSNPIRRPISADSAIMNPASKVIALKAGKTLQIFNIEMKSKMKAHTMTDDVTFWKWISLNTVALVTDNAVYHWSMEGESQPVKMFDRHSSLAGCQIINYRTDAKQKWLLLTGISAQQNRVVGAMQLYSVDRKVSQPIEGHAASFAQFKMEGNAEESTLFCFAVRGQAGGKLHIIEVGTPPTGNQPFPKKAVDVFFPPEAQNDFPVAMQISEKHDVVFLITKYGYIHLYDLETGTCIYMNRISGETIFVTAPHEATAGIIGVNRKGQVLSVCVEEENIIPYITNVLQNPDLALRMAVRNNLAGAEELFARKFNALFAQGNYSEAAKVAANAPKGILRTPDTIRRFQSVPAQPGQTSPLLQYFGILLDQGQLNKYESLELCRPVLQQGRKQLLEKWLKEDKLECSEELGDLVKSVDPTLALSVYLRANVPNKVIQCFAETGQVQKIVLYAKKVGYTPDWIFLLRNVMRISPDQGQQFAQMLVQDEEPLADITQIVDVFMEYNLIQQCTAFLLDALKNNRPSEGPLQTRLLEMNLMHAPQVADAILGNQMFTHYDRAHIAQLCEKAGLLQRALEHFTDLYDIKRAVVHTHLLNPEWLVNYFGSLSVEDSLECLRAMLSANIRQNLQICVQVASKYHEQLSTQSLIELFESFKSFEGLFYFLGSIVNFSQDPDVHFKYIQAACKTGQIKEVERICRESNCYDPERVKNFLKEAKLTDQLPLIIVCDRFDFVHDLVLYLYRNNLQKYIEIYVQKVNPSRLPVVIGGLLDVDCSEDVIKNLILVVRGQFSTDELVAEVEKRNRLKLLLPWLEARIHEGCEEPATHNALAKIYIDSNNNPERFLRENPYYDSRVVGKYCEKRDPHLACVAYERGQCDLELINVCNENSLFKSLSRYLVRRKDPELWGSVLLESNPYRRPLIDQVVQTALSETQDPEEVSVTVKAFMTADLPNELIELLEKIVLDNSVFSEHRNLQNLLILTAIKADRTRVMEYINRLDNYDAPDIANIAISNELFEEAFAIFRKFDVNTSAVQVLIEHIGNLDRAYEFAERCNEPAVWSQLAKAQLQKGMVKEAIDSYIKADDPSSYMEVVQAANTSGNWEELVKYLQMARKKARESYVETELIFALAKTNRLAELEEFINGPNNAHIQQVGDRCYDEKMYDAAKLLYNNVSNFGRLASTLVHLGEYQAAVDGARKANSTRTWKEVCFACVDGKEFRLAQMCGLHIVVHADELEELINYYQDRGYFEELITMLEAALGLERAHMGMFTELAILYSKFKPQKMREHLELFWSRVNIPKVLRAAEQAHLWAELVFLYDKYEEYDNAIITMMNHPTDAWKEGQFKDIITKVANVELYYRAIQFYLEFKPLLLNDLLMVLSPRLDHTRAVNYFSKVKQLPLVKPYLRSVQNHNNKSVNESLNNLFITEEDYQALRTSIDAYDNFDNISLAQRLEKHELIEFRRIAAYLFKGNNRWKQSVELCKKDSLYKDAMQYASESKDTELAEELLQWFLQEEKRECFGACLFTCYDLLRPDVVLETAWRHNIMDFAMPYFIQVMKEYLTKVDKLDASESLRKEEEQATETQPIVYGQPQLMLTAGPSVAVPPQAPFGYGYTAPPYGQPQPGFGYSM

Biological target: MACC1ΔSH3-GFP (MACC1 with deleted SH3-domain, C-terminal GFP) (human) (UniProt Q6ZN28)
Assay: co-IP; IP (pull-down) of MACC1 or its GFP-tagged variants from lysates of SW620, SW480/MACC1, SW480/MACC1-GFP and SW480 deletion-variant cells; CoIP lysing buffer (20 mM Tris–HCl pH 7.5, 150 mM NaCl, 0.1% NP40, 1 mM EDTA, 1% Triton X 100), antibody over night at 4 °C, protein-G Sepharose; Western blot

clathrin heavy chain 1 (CLTC) (from UniProt Q00610 1-1675)
binding: no binding
